Values of other authors in US6953788B1, “3-mercaptoacetylamino-1,5-substituted-2-oxo-azepan derivatives useful as inhibitors of matrix metalloproteinase” (Aventis Pharmaceuticals Inc., priority 1996, dated 2005).
For at least one compound, name, drawing or mass did not settle the structure.

Test system: B16-BL6 murine melanoma
Settings: intraperitoneal administration; intravenous injection of B16-BL6 murine melanoma in C57BL/6N mice; cited from earlier work

## CNC(=O)[C@H](Cc1ccccc1)NC(=O)[C@H](CC(C)C)[C@H](CSc1cccs1)C(=O)NO [batimastat]
  inhibition in the growth and metastatic spread and number of lung colonies: significant inhibition
